Reference: patent US20170080075A1
These are yes or no findings as the source states them, for the method shown. Some binding calls cover weakened binding; strength is not graded here.

Protein sequences, listed by entry. Tags and fused reporters are not part of them. Lines headed by an entry give the natural chain unless they say otherwise; changes in a name come on top.
UniProt Q7DDB6: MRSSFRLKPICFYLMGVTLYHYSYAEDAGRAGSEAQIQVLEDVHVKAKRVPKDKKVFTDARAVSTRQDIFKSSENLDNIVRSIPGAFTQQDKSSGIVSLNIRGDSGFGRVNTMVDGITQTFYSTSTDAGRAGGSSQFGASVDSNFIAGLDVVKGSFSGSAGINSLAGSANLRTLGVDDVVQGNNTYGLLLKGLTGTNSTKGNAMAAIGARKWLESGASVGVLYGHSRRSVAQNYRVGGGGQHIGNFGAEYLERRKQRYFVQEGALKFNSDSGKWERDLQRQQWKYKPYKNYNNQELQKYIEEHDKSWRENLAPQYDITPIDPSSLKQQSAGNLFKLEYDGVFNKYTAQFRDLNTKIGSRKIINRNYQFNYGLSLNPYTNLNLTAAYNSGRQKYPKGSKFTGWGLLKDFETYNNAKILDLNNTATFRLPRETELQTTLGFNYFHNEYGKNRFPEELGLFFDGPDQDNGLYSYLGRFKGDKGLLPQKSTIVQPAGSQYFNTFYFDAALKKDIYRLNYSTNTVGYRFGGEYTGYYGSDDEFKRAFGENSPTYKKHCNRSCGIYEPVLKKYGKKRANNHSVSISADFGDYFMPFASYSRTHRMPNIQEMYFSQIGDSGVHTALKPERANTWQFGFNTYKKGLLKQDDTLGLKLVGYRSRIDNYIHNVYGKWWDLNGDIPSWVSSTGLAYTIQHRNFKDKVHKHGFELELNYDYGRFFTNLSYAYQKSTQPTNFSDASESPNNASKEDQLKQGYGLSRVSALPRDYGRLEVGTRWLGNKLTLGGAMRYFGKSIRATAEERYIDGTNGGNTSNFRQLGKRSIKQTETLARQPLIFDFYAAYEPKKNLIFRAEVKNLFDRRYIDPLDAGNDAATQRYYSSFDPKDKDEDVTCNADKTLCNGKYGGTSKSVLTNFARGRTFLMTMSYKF

Experiments:
[1] = target: TdfH (Neisseria meningitidis) (UniProt Q7DDB6); assay: whole bacteria over-expressing TdfH incubated with calprotectin, with zinc or manganese added to the binding step; Western blot with anti-calprotectin
[2] = target: TdfH (Neisseria meningitidis) (UniProt Q7DDB6); assay: whole bacteria over-expressing TdfH incubated with calprotectin, washed, lysed; Western blot with anti-calprotectin; no metal added

B1: calprotectin (ligand)
chain 1: MLTELEKALNSIIDVYHKYSLIKGNFHAVYRDDLKKLLETECPQYIRKKGADVWFKELDINTDGAVNFQEFLILVIKMGVAAHKKSHEESHKE
chain 2: MTCKMSQLERNIETIINTFHQYSVKLGHPDTLNQGEFKELVRKDLQNFLKKENKNEKVIEHIMEDLDTNADKQLSFEEFIMLMARLTWASHEKMHEGDEGPGHHHKPGLGEGTP
For B1, the binding [1] was “binds” and the binding [2] was “binds”.
